US20030199424A1, “Method of treatment and/or prophylaxis” (priority 2002, published 2003)

Assay: Body weight, metabolic signs and general health of STZ-diabetic rats
Type: in vivo, rat
Description: Induction of STZ-diabetes produced an initial ≈5-10% reduction in (mean±SEM) body weight from 233 (±1.99) g pre-STZ administration to 218 (±3.28) g at 4 wks post-STZ, followed by a gradual return to the pre-study weight over the ensuing 6-mth study period (FIG. 1).
One rat died 5 wks after the cessation of candesartan therapy.

Substance: candesartan
- Effect on hyperphagia, polydipsia, body weight and blood glucose (STZ-diabetic rats, chronic once-daily oral candesartan 0.5 or 2.0 mg/kg/day): None of these above parameters were significantly altered
- Behavioural changes after re-initiation of treatment (re-initiation of oral candesartan 2.0 mg/kg/day after a 6-wk interval): reversed these behavioural changes
